No constants are given. Whether binding was seen depends on the method and setting. Binding seen in cells or lysates may run through a third protein. These calls come from enrichment with a bait or labelling near it, and not all partners need be listed. Tags and fused reporters may be left off the sequences shown.
Target: T1, SYT1 used as bait in the TAP-TAG screening (Arabidopsis thaliana) (UniProt Q9SKR2)
T1 sequence: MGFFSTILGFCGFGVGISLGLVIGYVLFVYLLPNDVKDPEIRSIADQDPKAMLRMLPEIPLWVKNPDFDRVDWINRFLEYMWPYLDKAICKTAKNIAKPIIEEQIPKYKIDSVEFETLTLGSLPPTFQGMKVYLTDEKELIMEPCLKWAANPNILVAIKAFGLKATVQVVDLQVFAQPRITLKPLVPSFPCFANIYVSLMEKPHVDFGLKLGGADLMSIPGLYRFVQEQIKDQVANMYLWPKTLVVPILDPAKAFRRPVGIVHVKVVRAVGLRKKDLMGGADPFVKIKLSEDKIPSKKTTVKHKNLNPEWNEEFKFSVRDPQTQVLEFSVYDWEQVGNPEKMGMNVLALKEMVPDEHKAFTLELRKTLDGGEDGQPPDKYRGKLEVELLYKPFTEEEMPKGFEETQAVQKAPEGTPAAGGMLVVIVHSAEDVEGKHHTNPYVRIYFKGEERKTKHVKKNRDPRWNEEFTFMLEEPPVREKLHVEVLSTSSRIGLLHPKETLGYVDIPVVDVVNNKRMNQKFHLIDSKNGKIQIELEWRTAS
Experiment: affinity purification with mass spectrometry

The chains behind the UniProt entries cited, without tags or fusion partners.
UniProt Q39017: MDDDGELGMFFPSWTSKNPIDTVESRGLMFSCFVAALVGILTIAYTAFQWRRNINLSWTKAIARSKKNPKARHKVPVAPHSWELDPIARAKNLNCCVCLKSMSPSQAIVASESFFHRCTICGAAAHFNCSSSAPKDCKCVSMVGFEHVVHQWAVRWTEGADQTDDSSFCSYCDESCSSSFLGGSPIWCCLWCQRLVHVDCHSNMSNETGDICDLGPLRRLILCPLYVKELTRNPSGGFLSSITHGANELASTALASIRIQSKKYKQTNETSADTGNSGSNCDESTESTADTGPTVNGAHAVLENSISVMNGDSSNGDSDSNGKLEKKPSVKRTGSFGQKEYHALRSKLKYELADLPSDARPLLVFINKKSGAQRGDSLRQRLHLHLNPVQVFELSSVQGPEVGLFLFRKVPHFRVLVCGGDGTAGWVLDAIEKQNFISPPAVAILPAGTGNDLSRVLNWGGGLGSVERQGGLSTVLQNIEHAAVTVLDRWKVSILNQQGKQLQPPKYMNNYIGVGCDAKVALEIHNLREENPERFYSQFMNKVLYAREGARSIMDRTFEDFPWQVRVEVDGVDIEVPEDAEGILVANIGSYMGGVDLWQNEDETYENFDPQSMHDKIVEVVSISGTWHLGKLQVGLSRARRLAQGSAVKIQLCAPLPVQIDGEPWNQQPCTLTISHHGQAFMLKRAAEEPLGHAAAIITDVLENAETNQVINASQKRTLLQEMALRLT

“DGK1 identified in the TAP-TAG screening (from UniProt Q39017 1-728)” was tested, and the binding was “binds”.
